Taken from: PubChem BioAssay AID1117269 (University of Michigan, 2014)

Aim: 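Which kinase knockdowns increase BTR reporter light after TGF-beta stimulation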 (primary screen)
Cells: human A549 lung cancer and 1833 breast cancer (MDA-MB-231-derived) cell lines carrying a stable BTR luciferase reporter
Reagents: siRNA pool against human genes
Time to read-out: 72 h after transfection, then 1 h TGF-beta before the read
Treatment: TGF-beta 10 ng/mL added one hour before luciferin and read-out
Measured: 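Live-cell BTR luciferase signal at 72 h after transfection and 1 h of TGF-beta at 10 ng/mL, fold versus scrambled siRNA, triplicate mean for each line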
Direction: fold over scrambled siRNA, A549 and fold over scrambled siRNA, 1833: higher = more reporter light, weaker TGF-beta receptor signalling
Call rule: 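Hit in either line counts as active; per-line hits lie above an upper limit from quartiles of averaged log fold values, in plate and screen-wide analyses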
Calls: active = hit in at least one line; inactive = hit in neither line
This is an unselected part of 714 reagents tested. Over the whole deposit, 49 (6.9%) are marked active. 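Active means a hit in at least one line; per-line hit columns show which; some siRNA pools appear more than once.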 Not stated in the record: the amount of reagent.

target | fold over scrambled siRNA, A549 | fold over scrambled siRNA, 1833 | hit in A549 | hit in 1833 | call
PRKAB1 | 1.48 | 0.857 | not a hit in A549 | not a hit in 1833 | inactive
ITPKC | 1.78 | 2 | not a hit in A549 | not a hit in 1833 | inactive
RSKR | 1.25 | 3.5 | not a hit in A549 | not a hit in 1833 | inactive
OXSR1 | 3.83 | 5.3 | not a hit in A549 | not a hit in 1833 | inactive
KCNH8 | 3.24 | 6.1 | not a hit in A549 | not a hit in 1833 | inactive
IRAK1 | 1.52 | 1.33 | not a hit in A549 | not a hit in 1833 | inactive
TP53RK | 3.81 | 4.9 | not a hit in A549 | not a hit in 1833 | inactive
NRK | 1.61 | 0.741 | not a hit in A549 | not a hit in 1833 | inactive
PRPS1L1 | 1.57 | 1.44 | not a hit in A549 | not a hit in 1833 | inactive
STK36 | 0.86 | 1.8 | not a hit in A549 | not a hit in 1833 | inactive
FGR | 0.799 | 0.956 | not a hit in A549 | not a hit in 1833 | inactive
DCLK2 | 0.667 | 1.52 | not a hit in A549 | not a hit in 1833 | inactive
MARK1 | 0.895 | 2.67 | not a hit in A549 | not a hit in 1833 | inactive
OBSCN | 2.63 | 4.93 | not a hit in A549 | not a hit in 1833 | inactive
DMPK | 1.9 | 1.36 | not a hit in A549 | not a hit in 1833 | inactive

Laid out differently: results already given.
PRPS1L1
- fold over scrambled siRNA, A549: 1.57
- fold over scrambled siRNA, 1833: 1.44
- hit in A549: not a hit in A549
- hit in 1833: not a hit in 1833
- call: inactive

STK36
- fold over scrambled siRNA, A549: 0.86
- fold over scrambled siRNA, 1833: 1.8
- hit in A549: not a hit in A549
- hit in 1833: not a hit in 1833
- call: inactive

FGR
- fold over scrambled siRNA, A549: 0.799
- fold over scrambled siRNA, 1833: 0.956
- hit in A549: not a hit in A549
- hit in 1833: not a hit in 1833
- call: inactive

DCLK2
- fold over scrambled siRNA, A549: 0.667
- fold over scrambled siRNA, 1833: 1.52
- hit in A549: not a hit in A549
- hit in 1833: not a hit in 1833
- call: inactive

MARK1
- fold over scrambled siRNA, A549: 0.895
- fold over scrambled siRNA, 1833: 2.67
- hit in A549: not a hit in A549
- hit in 1833: not a hit in 1833
- call: inactive

Additional entries:
target | fold over scrambled siRNA, A549 | fold over scrambled siRNA, 1833 | hit in A549 | hit in 1833 | call
DYRK3 | 1.92 | 4.49 | not a hit in A549 | not a hit in 1833 | inactive
CDC42BPG | 2.72 | 3.14 | not a hit in A549 | not a hit in 1833 | inactive
TWF1 | 3.01 | 3.27 | not a hit in A549 | not a hit in 1833 | inactive
RPS6KA2 | 2.02 | 1.52 | not a hit in A549 | not a hit in 1833 | inactive
TRIB1 | 1.71 | 2.9 | not a hit in A549 | not a hit in 1833 | inactive
RPS6KA3 | 2.04 | 0.857 | not a hit in A549 | not a hit in 1833 | inactive
TBCK | 1.54 | 1.42 | not a hit in A549 | not a hit in 1833 | inactive
MAP4K2 | 5.1 | 4.29 | not a hit in A549 | not a hit in 1833 | inactive
SPHK2 | 0.857 | 2.34 | not a hit in A549 | not a hit in 1833 | inactive
DAPK3 | 1.89 | 3.1 | not a hit in A549 | not a hit in 1833 | inactive
TRIB2 | 2.29 | 4.51 | not a hit in A549 | not a hit in 1833 | inactive
EPHA2 | 1.28 | 2.18 | not a hit in A549 | not a hit in 1833 | inactive
MAPKAPK5 | 1.44 | 0.852 | not a hit in A549 | not a hit in 1833 | inactive
NIM1K | 1.8 | 2.93 | not a hit in A549 | not a hit in 1833 | inactive
BRAF | 1.1 | 1.29 | not a hit in A549 | not a hit in 1833 | inactive
DGKQ | 8.35 | 6.67 | hit in A549 | not a hit in 1833 | active
PRKD2 | 4 | 7.38 | not a hit in A549 | not a hit in 1833 | inactive
RIOK1 | 0.833 | 2.27 | not a hit in A549 | not a hit in 1833 | inactive
PLK2 | 2.95 | 5.7 | not a hit in A549 | not a hit in 1833 | inactive
PRP4K | 0.619 | 2.52 | not a hit in A549 | not a hit in 1833 | inactive
TWF2 | 5.33 | 4.56 | not a hit in A549 | not a hit in 1833 | inactive
PIK3CB | 0.905 | 2 | not a hit in A549 | not a hit in 1833 | inactive
RNASEL | 3.57 | 5.91 | not a hit in A549 | not a hit in 1833 | inactive
MAP3K8 | 2.7 | 1.52 | not a hit in A549 | not a hit in 1833 | inactive
